Test results taken from article PMC6199744, “Development of Chemical Proteomics for the Folateome and Analysis of the Kinetoplastid Folateome” (ACS Infectious Diseases, 2018).
Several values for one entry are separate records, joined by “and”; a condition that tells them apart may be missing. Identical values can stand only once. Like-named read-outs stand apart in the source and are kept apart here. This continues a long series; more values of the same kind are listed elsewhere.

Tested on: L. major lysate proteins
Assay: Multitargeted bead mixture chemoproteomics, single concentration competition, proteome-wide
Type: binding

Question: Which fold change does the source give for CCCCCCOc1ccc(Cc2cnc(N)nc2N)cc1 [compound 1] here?
Answer: 1.07 and 1.02 and 1.06 and 0.86 and 1.27 and 1.01

Question: And the fold change (LINJ.11.0960 40S RIBOSOMAL PROTEIN S5, vehicle control = 1)?
Answer: 0.94

Question: What about the fold change (LINJ.11.1180 40S RIBOSOMAL PROTEIN S15A, PUTATIVE, vehicle control = 1) of the same compound?
Answer: 1.23

Question: What about the fold change (LINJ.15.1170 HYPOTHETICAL PROTEIN, CONSERVED, vehicle control = 1) of the same compound?
Answer: 0.94

Question: And the fold change (LINJ.18.0270 GLYCOGEN SYNTHASE KINASE 3, vehicle control = 1)?
Answer: 0.99

Question: What about the fold change (LINJ.21.1790 40S RIBOSOMAL PROTEIN S11, PUTATIVE, vehicle control = 1) of the same compound?
Answer: 0.92

Question: What about the fold change (LINJ.22.0180 HYPOTHETICAL PROTEIN, CONSERVED, vehicle control = 1) of the same compound?
Answer: 1.73

Question: And the fold change (LINJ.25.2170 HY[…], CONSERVED, vehicle control = 1)?
Answer: 1.02

Question: And the fold change (LINJ.28.2870 PROTEIN PHOSPHATASE 4 CATALYTIC SUBUNIT, PUTATIVE, vehicle control = 1)?
Answer: 0.71

Question: What about the fold change (LINJ.29.0020 TRANSCRIPTION FACTOR-LIKE PROTEIN, vehicle control = 1) of the same compound?
Answer: 0.83

Question: And the fold change (LINJ.29.0110 HY[…], CONSERVED, vehicle control = 1)?
Answer: 1.07

Question: And the fold change (LINJ.30.3080 EUKARYOTIC TRANSLATION INITIATION FACTOR 3 SUBUNIT 7-LIKE PROTEIN, vehicle control = 1)?
Answer: 0.98

Question: And the fold change (LINJ.33.0960 40S RIBOSOMAL PROTEIN S3, PUTATIVE, vehicle control = 1)?
Answer: 1.16

Question: What about the fold change (LINJ.35.1820 HYPOTHETICAL PROTEIN, CONSERVED, vehicle control = 1) of the same compound?
Answer: 0.74

Question: What about the fold change (LINJ.35.2240 RNA-BINDING PROTEIN, PUTATIVE, vehicle control = 1) of the same compound?
Answer: 0.85

Question: What about the fold change (LINJ.36.1160 RIBOSOMAL PROTEIN L24, PUTATIVE, vehicle control = 1) of the same compound?
Answer: 0.73

Question: What about the fold change (LINJ.36.1580 HYPOTHETICAL PROTEIN, CONSERVED,NIMA-RELATED PROTEIN KINASE, PUTATIVE, vehicle control = 1) of the same compound?
Answer: 0.61

Question: And the fold change (LMJF.01.0570 TRIC[…], PUTATIVE, vehicle control = 1)?
Answer: 0.88

Question: What about the fold change (LMJF.03.0190 U2 SPLICING AUXILIARY FACTOR, PUTATIVE, vehicle control = 1) of the same compound?
Answer: 0.77

Question: And the fold change (LMJF.03.0540 26S PROTEASE […], PUTATIVE, vehicle control = 1)?
Answer: 1.01

Question: What about the fold change (LMJF.05.0280 PROTEIN TYROSINE PHOSPHATASE, PUTATIVE, vehicle control = 1) of the same compound?
Answer: 1.03

Question: What about the fold change (LMJF.05.1140 VACUOLAR ATPASE SUBUNIT-LIKE PROTEIN, vehicle control = 1) of the same compound?
Answer: 0.87

Question: What about the fold change (LMJF.06.0370 GLUTAMINE SYNTHETASE, PUTATIVE, vehicle control = 1) of the same compound?
Answer: 0.99

Question: What about the fold change (LMJF.07.1050 CATION-TRANSPORTING ATPASE, PUTATIVE, vehicle control = 1) of the same compound?
Answer: 0.91

Question: What about the fold change (LMJF.08.0410 HYPOTHETICAL PROTEIN, CONSERVED, vehicle control = 1) of the same compound?
Answer: 0.86

Question: And the fold change (LMJF.08.1130 PHOSPHORIBOSYLPYROPHOSPHATE SYNTHETASE, vehicle control = 1)?
Answer: 0.56

Question: What about the fold change (LMJF.10.0310 PROTEIN TRANSPORT PROTEIN SEC23, PUTATIVE, vehicle control = 1) of the same compound?
Answer: 1.09

Question: What about the fold change (LMJF.10.0910 SMALL GTP-BINDING PROTEIN RAB11, PUTATIVE, vehicle control = 1) of the same compound?
Answer: 0.76

Question: And the fold change (LMJF.11.0590 3-[…]-COA C[…] SUBUNIT, PUTATIVE, vehicle control = 1)?
Answer: 0.8

Question: What about the fold change (LMJF.11.1000 PYRUVATE PHOSPHATE DIKINASE, PUTATIVE, vehicle control = 1) of the same compound?
Answer: 0.85

Question: And the fold change (LMJF.11.1030 HY[…], CONSERVED, vehicle control = 1)?
Answer: 1.03

Question: And the fold change (LMJF.13.1230 40S RIBOSOMAL PROTEIN S4, PUTATIVE, vehicle control = 1)?
Answer: 1.06

Question: And the fold change (LMJF.14.0670 FATTY ACID ELONGASE, PUTATIVE, vehicle control = 1)?
Answer: 1.12

Question: And the fold change (LMJF.14.1320 SERINE […] (SHMT-S), vehicle control = 1)?
Answer: 1.05

Question: And the fold change (LMJF.15.0040 HYPOTHETICAL PROTEIN, CONSERVED, vehicle control = 1)?
Answer: 0.66

Question: And the fold change (LMJF.15.0970 NAD/FAD DEPENDENT DEHYDROGENASE, PUTATIVE, vehicle control = 1)?
Answer: 0.41

Question: And the fold change (LMJF.16.0440 FUCOSE KINASE, PUTATIVE, vehicle control = 1)?
Answer: 0.77

Question: What about the fold change (LMJF.16.0550 OROTIDINE-5-PHOSPHATE DECARBOXYLASE/OROTATE PHOSPHORIBOSYLTRANSFERASE, PUTATIVE, vehicle control = 1) of the same compound?
Answer: 0.95

Question: And the fold change (LMJF.17.1290 TRANSLATION INITIATION FACTOR, PUTATIVE, vehicle control = 1)?
Answer: 0.39

Question: What about the fold change (LMJF.18.0700 HYPOTHETICAL PROTEIN, CONSERVED, vehicle control = 1) of the same compound?
Answer: 0.81

Question: What about the fold change (LMJF.18.1090 CAMP PHOSPHO[…], PUTATIVE, vehicle control = 1) of the same compound?
Answer: 1.03

Question: What about the fold change (LMJF.18.1280 HYPOTHETICAL PROTEIN, CONSERVED, vehicle control = 1) of the same compound?
Answer: 0.96

Question: What about the fold change (LMJF.18.1510 P-TYPE H -ATPASE, PUTATIVE, vehicle control = 1) of the same compound?
Answer: 1

Question: What about the fold change (LMJF.19.0200 ADP,ATP CARRIER PROTEIN 1, MIT[…], PUTATIVE, vehicle control = 1) of the same compound?
Answer: 1.11

Question: And the fold change (LMJF.19.1510 HYPOTHETICAL PROTEIN, CONSERVED, vehicle control = 1)?
Answer: 0.91

Question: What about the fold change (LMJF.20.1180 CALPAIN-LIKE CYSTEINE PEPTIDASE, PUTATIVE, vehicle control = 1) of the same compound?
Answer: 0.71

Question: What about the fold change (LMJF.21.0015 HISTONE H4, vehicle control = 1) of the same compound?
Answer: 0.87

Question: And the fold change (LMJF.21.0250 HEXOKINASE, PUTATIVE, vehicle control = 1)?
Answer: 0.95

Question: And the fold change (LMJF.21.0820 HY[…], CONSERVED, vehicle control = 1)?
Answer: 0.84

Question: And the fold change (LMJF.21.1450 ARGININE N-METHYLTRANSFERASE, TYPE II, PUTATIVE, vehicle control = 1)?
Answer: 0.8

Question: What about the fold change (LMJF.21.1770 ATP SYNTHASE F1 SUBUNIT GAMMA PROTEIN, PUTATIVE, vehicle control = 1) of the same compound?
Answer: 1.18

Question: What about the fold change (LMJF.21.1860 BETA TUBULIN, vehicle control = 1) of the same compound?
Answer: 1.05

Question: What about the fold change (LMJF.22.0770 NADH-CYTOCHROME B5 REDUCTASE, PUTATIVE, vehicle control = 1) of the same compound?
Answer: 0.77

Question: What about the fold change (LMJF.22.0990 HYPOTHETICAL PROTEIN, CONSERVED, vehicle control = 1) of the same compound?
Answer: 0.93

Question: And the fold change (LMJF.22.1630 CCR4 ASSOCIATED FACTOR, PUTATIVE, vehicle control = 1)?
Answer: 0.74

Question: What about the fold change (LMJF.23.0080 HYPOTHETICAL PROTEIN, CONSERVED, vehicle control = 1) of the same compound?
Answer: 0.91

Question: And the fold change (LMJF.23.0110 GDP-MANNOSE PYROPHOSPHORYLASE, vehicle control = 1)?
Answer: 0.92

Question: And the fold change (LMJF.23.0210 ATP-BINDING CASSETTE PROTEIN SUBFAMILY C, MEMBER 1, PUTATIVE, vehicle control = 1)?
Answer: 0.78

Question: What about the fold change (LMJF.23.0640 HYPOTHETICAL PROTEIN, CONSERVED, vehicle control = 1) of the same compound?
Answer: 0.88

Question: What about the fold change (LMJF.24.0070 HYPOTHETICAL PROTEIN, CONSERVED, vehicle control = 1) of the same compound?
Answer: 0.91

Question: And the fold change (LMJF.27.0130 HY[…], CONSERVED, vehicle control = 1)?
Answer: 1.17

Question: What about the fold change (LMJF.27.0650 HYPOTHETICAL PROTEIN, CONSERVED, vehicle control = 1) of the same compound?
Answer: 0.96

Question: And the fold change (LMJF.28.2310 EUKARYOTIC TRANSLATION INITIATION FACTOR, PUTATIVE, vehicle control = 1)?
Answer: 0.95

Question: What about the fold change (LMJF.28.2510 ACYL-COA DEHYDROGENASE, PUTATIVE, vehicle control = 1) of the same compound?
Answer: 0.95

Question: And the fold change (LMJF.29.1500 HYPOTHETICAL PROTEIN, CONSERVED, vehicle control = 1)?
Answer: 0.8
